Values from PubChem BioAssay AID1053208 (Peter MacCallum Cancer Centre, 2014)
The whole screen tested about 17,000 reagents; this is a part drawn at random. 788 of them (4.7%) count as active. 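Calls rest on z-score classes alone; an extra cut-off of viability at most 70% of control was not applied to them.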 Unmarked entries are inactive. Not all columns of the deposit are shown.

- Assay: 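Genes whose silencing cuts survival of bone tumour cells only with doxorubicin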 (primary screen)
- System: mouse osteosarcoma cells, early-passage culture from an engineered mouse model of fibroblastic bone tumour
- Reagents: siRNA pool against mouse genes, 40 nM
- Timing: about 120 h (48 h before drug, then 72 h with drug)
- Challenge: doxorubicin 100 nM for 72 h, roughly 30-40% inhibitory dose
- Detection: 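Viability read as ATP luminescence after 72 h of 100 nM doxorubicin or none, duplicate wells averaged, scaled to non-targeting siRNA, then expressed as robust z-scores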
- Direction: viability z-score with doxorubicin: higher = more viable cells under doxorubicin; viability z-score without drug: higher = more viable cells with knock-down alone; z-score of drug to no-drug ratio: higher = less drug sensitisation by knock-down
- Hit rule: 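a pool counts as active when its viability z-score with doxorubicin is -2 or below and its z-score without drug lies between -2 and 2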

| gene | combined z-score class | viability z-score with doxorubicin | viability z-score without drug | z-score of drug to no-drug ratio |
| --- | --- | --- | --- | --- |
| Mtus2 (GeneID 77521) | no change with or without drug | 1.57 | 0.84 | 1.12 |
| Cimap1a (GeneID 69287) | no change with or without drug | 0.9 | 0.84 | 0.45 |
| Scn5a (GeneID 20271) | no change with or without drug | 0.22 | 0.51 | 0 |
| Or4a74 (GeneID 258968) | no change with or without drug | 1.35 | 0.84 | 0.9 |
| Hook2 (GeneID 170833) | no change with or without drug | -0.45 | 0.17 | -0.45 |
| Scart2 (GeneID 244234) | no change with or without drug | 1.01 | 1.18 | 0.34 |
| Mapk13 (GeneID 26415) | no change with or without drug | -0.11 | -0.51 | 0.34 |
| Tmem43 (GeneID 74122) | no change with or without drug | 1.69 | 1.85 | 0.56 |
| Ubxn1 (GeneID 225896) | no change with or without drug | -0.56 | 1.18 | -1.24 |
| Kyat3 (GeneID 229905) | no change with or without drug | 0.9 | -0.67 | 1.57 |
| PLEKHK1 | no change with or without drug | 0 | 0 | 0.11 |
| Kctd12b (GeneID 207474) | no change with or without drug | -0.9 | -1.01 | -0.11 |
| Mlc1 (GeneID 170790) | no change with or without drug | 0.56 | 0.34 | 0.45 |
| Alg9 (GeneID 102580) | no change with or without drug | 0.9 | 0.51 | 0.67 |
| Arhgap12 (GeneID 75415) | no change with or without drug | -0.11 | -0.84 | 0.56 |
| Zbtb6 (GeneID 241322) | no change with or without drug | 0 | 0.84 | -0.45 |
| Chst3 (GeneID 53374) | no change with or without drug | -0.34 | 1.52 | -1.12 |
| Or10d4c (GeneID 258497) | low cell count with and without drug | -2.25 | -2.19 | -0.9 |
| Or9a7 (GeneID 258380) | no change with or without drug | -0.22 | -0.84 | 0.45 |
| Krt17 (GeneID 16667) | no change with or without drug | -0.11 | -1.52 | 1.12 |
